Test results published in PubChem BioAssay AID1487 (National Center for Advancing Translational Sciences (NCATS), 2009).
Some of the results follow. The main result of the screen is listed elsewhere. These columns were measured beside it and carry no call. The list favours compounds with an active or inconclusive main result. Potencies come from curve fits of mixed quality, noted in brackets.

Assay: qHTS Assay for Modulators of Lamin A Splicing
Conditions: HeLa LMNA splicing GFP/RFP minigene ratio, 48 h
Outline: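 S3 HeLa cells stably expressing lamin A-EGFP splicing minigene plus DsRed2, 600 cells/well, 48 h compound exposure at 37C. Laser-scanning cytometry; analysed as GFP (500-530 nm)/RFP (575-640 nm) total intensity ratio; 0.5% DMSO vehicle.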

[1] = measured here: RFP viability control channel
[2] = measured here: GFP splicing reporter channel

Compound	AC50 [1]	AC50 [2]
Cc1onc(-c2ccccc2)c1C(=O)NNC(=S)NC(=O)/C=C/c1ccccc1	5.62 µM [rising, partial curve, poor fit]	
CN(C)S(=O)(=O)c1ccc2c(c1)nc(CCC(=O)Nc1ccc3c(c1)OCO3)n2C	12.6 µM [rising, single point]	10 µM [rising, single point]
Cc1cccc2sc(N(Cc3cccnc3)C(=O)c3cccs3)nc12		7.08 µM [falling, partial curve, poor fit]
O=C(N/N=C/c1c(O)n(-c2ccccc2Cl)c(=O)c2ccccc12)C1COc2ccccc2O1 (configuration not stated)	25.1 µM [rising, single point]	
CCOc1cc2[nH]c(=O)n(CCCCC(=O)N3CCN(c4cccc(Cl)c4)CC3)c(=O)c2cc1OCC		25.1 µM [falling, single point]
Cc1ccccc1C(=O)NC(=S)Nc1ccccc1[N+](=O)[O-]	10 µM [rising, partial curve, poor fit]	
CCOc1cc(S(=O)(=O)NCc2ccncc2)ccc1Cl		0.398 µM [falling, full curve, poor fit]
COC(=O)c1ccc(NC(=O)CN2C(=O)CCc3cc(S(=O)(=O)N4CCCCC4)ccc32)cc1	17.8 µM [rising, partial curve, poor fit]	
COCCCNc1nc(-c2ccncc2)nc2ccccc12		2.82 µM [falling, partial curve, poor fit]
O=C(NCCSCc1c(F)cccc1Cl)c1ccc(CN2CCOCC2)cc1	31.6 µM [rising, single point]	15.8 µM [rising, single point]
COc1cccc(/C=N/NC(=O)c2[nH]c(C)c(C(=O)N/N=C/c3cccc(OC)c3)c2C)c1	12.6 µM [rising, partial curve]	
Cc1cccc(Nc2nnc(SCC3CCCCO3)s2)c1 (configuration not stated)	35.5 µM [rising, single point]	
CC(C)CNC(=O)CSc1nnc(-c2ccccn2)n1Cc1ccccc1		8.91 µM [rising, partial curve, poor fit]
OC(CNC1CCCC1)COc1ccc(-c2ccccc2)cc1 (configuration not stated)	35.5 µM [falling, single point]	
CCN(CC)S(=O)(=O)c1ccc(Cl)c(C(=O)Nc2ccc(Cl)cc2[N+](=O)[O-])c1	6.31 µM [rising, partial curve]	3.98 µM [rising, full curve, poor fit]
Cc1[nH]c(=O)[nH]c(=O)c1S(=O)(=O)N1CCN(c2ccccc2Cl)CC1	12.6 µM [rising, partial curve]	14.1 µM [rising, partial curve, poor fit]
CCOC(=O)c1cc(-c2ccccc2)n(CCCC(=O)Nc2cccc(C)c2C)c1C	10 µM [falling, partial curve, poor fit]	
O=C(O)C1C2C=CC(C2)C1C(=O)OCC1CCCO1 (configuration not stated)	35.5 µM [falling, partial curve, poor fit]	

Compound	AC50 [1]	AC50 [2]
C=CCSc1nc2sc(C)c(C)c2c(=O)n1CC=C	12.6 µM [rising, single point]	
Cc1cc(Oc2ccccc2)nc(SCC(=O)Nc2ccc(Cl)cc2Cl)n1	22.4 µM [rising, single point]	22.4 µM [rising, single point]
Cc1nc(-n2nnc3ccccc32)c2c3c(sc2n1)CCCC3	35.5 µM [rising, single point]	35.5 µM [rising, single point]
Cc1cccc(-n2cc(-c3ccccc3)c3c(NC4CCCC4)ncnc32)c1		20 µM [falling, single point]
CCOC(=O)c1c(NC(=O)c2ccc(S(=O)(=O)N3CCC(C)CC3)cc2)sc2c1CCN(CC)C2	35.5 µM [falling, single point]	35.5 µM [falling, single point]
Cc1cc(NC(=O)CSc2nc(C3CCCCC3)nc3ccccc23)no1		6.31 µM [falling, single point]
CCOC(=O)c1ccc(NC(=O)CCC(=O)N2Cc3ccccc3Oc3ncccc32)cc1		5.62 µM [falling, single point]
CCC(=O)N1CCN(c2ccc(NC(=O)c3cc4ccccc4o3)cc2Cl)CC1	35.5 µM [falling, single point]	25.1 µM [falling, single point]
CCOc1ccccc1NC(=O)/C=C/c1ccccc1[N+](=O)[O-]	0.0794 µM [rising, full curve, poor fit]	
O=C(CSc1ccc(-c2ccco2)nn1)N1CCCCCC1		0.0316 µM [rising, full curve, poor fit]
C=CCn1c(C)cc(C(=O)COc2ccc(C)nc2[N+](=O)[O-])c1C	17.8 µM [rising, partial curve]	8.91 µM [rising, partial curve, poor fit]
CCOC(=O)C1CCN(C(c2cccc(F)c2)c2c(O)cc(C)n(Cc3ccco3)c2=O)CC1 (configuration not stated)	8.91 µM [rising, partial curve, poor fit]	
CSc1nc(-c2ccccc2)c(-c2ccccc2)[nH]1	22.4 µM [falling, partial curve, poor fit]	10 µM [falling, partial curve]
COc1ccc(C2CC(c3cccs3)=NN2S(C)(=O)=O)cc1OC (configuration not stated)	0.0224 µM [falling, full curve, poor fit]	
Cc1cccc(C(=O)Nc2scc(CC(C)C)c2C(=O)O)c1	22.4 µM [rising, single point]	14.1 µM [rising, single point]
CCC(=O)Nc1cccc(C(=O)/C=C/c2ccccc2)c1	0.141 µM [falling, full curve]	0.282 µM [falling, full curve]
CCCc1ccc(S(=O)(=O)NCCc2ccncc2)cc1	12.6 µM [rising, partial curve]	

Compounds above with a COOH group:
Compound	AC50 [1]	AC50 [2]
O=C(O)C1C2C=CC(C2)C1C(=O)OCC1CCCO1 (configuration not stated)	35.5 µM [falling, partial curve, poor fit]	
Cc1cccc(C(=O)Nc2scc(CC(C)C)c2C(=O)O)c1	22.4 µM [rising, single point]	14.1 µM [rising, single point]
